The target in this assay is T1, His6-tagged Rpt3 (S. cerevisiae) (UniProt P33298).
T1 sequence: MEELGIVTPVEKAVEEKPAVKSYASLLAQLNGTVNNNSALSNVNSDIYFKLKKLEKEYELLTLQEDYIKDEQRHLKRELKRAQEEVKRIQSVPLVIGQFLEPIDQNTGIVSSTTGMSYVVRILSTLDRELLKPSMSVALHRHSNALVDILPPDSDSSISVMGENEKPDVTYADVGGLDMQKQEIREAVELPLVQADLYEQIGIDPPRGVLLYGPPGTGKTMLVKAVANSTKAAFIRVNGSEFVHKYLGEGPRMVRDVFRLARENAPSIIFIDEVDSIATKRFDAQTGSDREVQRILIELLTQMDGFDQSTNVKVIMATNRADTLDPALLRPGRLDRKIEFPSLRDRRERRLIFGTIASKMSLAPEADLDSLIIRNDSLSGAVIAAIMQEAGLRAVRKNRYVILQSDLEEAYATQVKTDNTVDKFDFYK
Description: affinity purification with mass spectrometry.

Experimental findings from article doi:10.1101/2022.10.25.513763 are described below.

These are yes or no findings as the source states them, for the method shown. Binding seen in cells or lysates may run through a third protein. Here binding means that the protein was enriched with, or labelled near, the bait; the list need not be complete. Tags and fused reporters may be left off the sequences shown.

B1: Rpn2 (protein, UniProt P32565 1-945)
chain: MSLTTAAPLLALLRENQDSVKTYALESINNVVDQLWSEISNELPDIEALYDDDTFSDREMAALIASKVYYNLGEYESAVKYALAAKDRFDIDEKSQFVETIVSKSIEMYVQEASKQYTKDEQFYTKDIIDPKLTSIFERMIEKCLKASELKLALGIALEGYRLDIIESALKSKLDQDSTSENVKIINYLLTLAITTVTNSKFRSSILRKSFDFLMNMPNCDYLTLNKVVVNLNDAGLALQLFKKLKEENDEGLSAQIAFDLVSSASQQLLEILVTELTAQGYDPALLNILSGLPTCDYYNTFLLNNKNIDIGLLNKSKSSLDGKFSLFHTAVSVANGFMHAGTTDNSFIKANLPWLGKAQNWAKFTATASLGVIHKGNLLEGKKVMAPYLPGSRASSRFIKGGSLYGLGLIYAGFGRDTTDYLKNIIVENSGTSGDEDVDVLLHGASLGIGLAAMGSANIEVYEALKEVLYNDSATSGEAAALGMGLCMLGTGKPEAIHDMFTYSQETQHGNITRGLAVGLALINYGRQELADDLITKMLASDESLLRYGGAFTIALAYAGTGNNSAVKRLLHVAVSDSNDDVRRAAVIALGFVLLRDYTTVPRIVQLLSKSHNAHVRCGTAFALGIACAGKGLQSAIDVLDPLTKDPVDFVRQAAMIALSMILIQQTEKLNPQVADINKNFLSVITNKHQEGLAKFGACVAQGIMNAGGRNVTIQLENADTGTLDTKSVVGLVMFSQFWYWFPLAHFLSLSFTPTTVIGIRGSDQAIPKFQMNCYAKEDAFSYPRMYEEASGKEVEKVATAVLSTTARAKARAKKTKKEKGPNEEEKKKEHEEKEKERETNKKGIKETKENDEEFYKNKYSSKPYKVDNMTRILPQQSRYISFIKDDRFVPVRKFKGNNGVVVLRDREPKEPVALIETVRQMKDVNAPLPTPFKVDDNVDFPSA
For B1, the binding entry is “binds”.

B2: Rpn13 (protein, UniProt O13563 1-156)
chain: MSMSSTVIKFRAGVCEYNEDSRLCTPIPVQGEIEIKPNEEEELGFWDFEWRPTEKPVGRELDPISLILIPGETMWVPIKSSKSGRIFALVFSSNERYFFWLQEKNSGNLPLNELSAKDKEIYNKMIGVLNNSSESDEEESNDEKQKAQDVDVSMQD
Turning to B2, the binding result is given as “binds”.
